Library screen at single concentrations

Protein sequences, listed by entry. Tags and fused reporters are not part of them. Residues count along the entry.
UniProt Q8IDJ8, 1-583: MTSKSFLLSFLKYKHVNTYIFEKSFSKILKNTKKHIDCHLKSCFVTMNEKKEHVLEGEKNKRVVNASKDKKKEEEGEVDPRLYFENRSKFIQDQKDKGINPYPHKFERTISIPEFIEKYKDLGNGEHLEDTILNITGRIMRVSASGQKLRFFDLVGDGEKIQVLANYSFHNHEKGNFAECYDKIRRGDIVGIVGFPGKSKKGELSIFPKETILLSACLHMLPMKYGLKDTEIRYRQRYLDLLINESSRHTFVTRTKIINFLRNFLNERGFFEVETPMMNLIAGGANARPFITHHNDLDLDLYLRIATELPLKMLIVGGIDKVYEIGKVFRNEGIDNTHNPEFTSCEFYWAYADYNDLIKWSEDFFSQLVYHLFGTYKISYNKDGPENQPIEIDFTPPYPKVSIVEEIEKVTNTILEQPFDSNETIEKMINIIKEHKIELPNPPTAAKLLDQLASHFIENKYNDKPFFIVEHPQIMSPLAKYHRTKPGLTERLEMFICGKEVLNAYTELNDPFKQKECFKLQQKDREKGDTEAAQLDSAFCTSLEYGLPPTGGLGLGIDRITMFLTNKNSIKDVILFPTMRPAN
UniProt A4I591, 1-473: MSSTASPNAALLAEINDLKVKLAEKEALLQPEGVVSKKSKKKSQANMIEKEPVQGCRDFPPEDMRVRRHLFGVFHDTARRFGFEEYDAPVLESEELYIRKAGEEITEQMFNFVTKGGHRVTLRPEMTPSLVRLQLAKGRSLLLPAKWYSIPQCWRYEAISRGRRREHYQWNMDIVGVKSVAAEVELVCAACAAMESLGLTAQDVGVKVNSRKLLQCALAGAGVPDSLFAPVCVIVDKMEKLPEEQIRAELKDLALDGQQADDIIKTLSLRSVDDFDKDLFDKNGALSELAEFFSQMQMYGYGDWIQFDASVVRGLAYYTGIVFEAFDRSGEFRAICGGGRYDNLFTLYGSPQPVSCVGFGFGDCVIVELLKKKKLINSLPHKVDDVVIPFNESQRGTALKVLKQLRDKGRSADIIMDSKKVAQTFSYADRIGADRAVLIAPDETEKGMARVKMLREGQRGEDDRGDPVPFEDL
UniProt Q4DA54, 1-478: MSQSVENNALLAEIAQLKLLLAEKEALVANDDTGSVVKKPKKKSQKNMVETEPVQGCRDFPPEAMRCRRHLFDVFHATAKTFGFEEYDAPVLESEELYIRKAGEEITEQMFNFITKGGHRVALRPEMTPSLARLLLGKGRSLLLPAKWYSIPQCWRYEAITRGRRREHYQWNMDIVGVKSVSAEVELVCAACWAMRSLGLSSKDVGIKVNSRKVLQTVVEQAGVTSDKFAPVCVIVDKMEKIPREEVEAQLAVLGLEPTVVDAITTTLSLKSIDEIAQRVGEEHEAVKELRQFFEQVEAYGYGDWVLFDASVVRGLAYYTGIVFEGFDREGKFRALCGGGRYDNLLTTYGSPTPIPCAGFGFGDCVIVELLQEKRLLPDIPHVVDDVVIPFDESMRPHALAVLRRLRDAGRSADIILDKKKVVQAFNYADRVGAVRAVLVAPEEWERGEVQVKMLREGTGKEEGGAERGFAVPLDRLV
UniProt P9WPC5, whole entry: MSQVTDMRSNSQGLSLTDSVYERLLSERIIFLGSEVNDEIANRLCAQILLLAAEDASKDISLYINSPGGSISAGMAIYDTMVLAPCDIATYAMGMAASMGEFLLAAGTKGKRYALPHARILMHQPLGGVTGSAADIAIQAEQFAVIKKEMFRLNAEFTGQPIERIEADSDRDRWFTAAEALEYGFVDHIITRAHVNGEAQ
UniProt P9WPC3, whole entry partner: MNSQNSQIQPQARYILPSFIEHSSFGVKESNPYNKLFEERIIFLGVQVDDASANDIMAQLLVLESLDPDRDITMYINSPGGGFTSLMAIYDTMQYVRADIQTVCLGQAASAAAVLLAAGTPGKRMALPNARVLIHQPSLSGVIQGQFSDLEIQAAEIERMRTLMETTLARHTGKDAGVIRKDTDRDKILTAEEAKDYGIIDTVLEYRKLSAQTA

The filed quantity is “Percent Effect” (%). The controls that fix the scale are not given in the record; negative values are as filed. Compounds were drawn at random from those tested, without regard to their results. Two or more numbers in one place are separate tests of the same structure; such repeats can differ widely. A dash means the value is not listed here; it may have been measured.

A: 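Enzyme assay of the cytosolic lysyl-tRNA synthetase in 384-well plates, read by luminescence. Target: Lysine-tRNA ligase, Plasmodium falciparum 3D7 (UniProt Q8IDJ8). Tested at 30 µM. Higher reads as stronger inhibition, judged from the few compounds that gave an IC50. Size under these conditions: about 69,000 compounds, about 49 of them at 50% or above in at least one test.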
B: 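Histidine-tRNA ligase, Leishmania infantum (UniProt A4I591). Enzyme assay of histidyl-tRNA synthetase; the read-out is not stated. Tested at 30 µM. The record gives no direction; compounds that gave an IC50 in retests scored well above the rest, so higher reads as stronger inhibition. The assay is labelled LdHisRS but filed under L. infantum. Size under these conditions: about 69,000 compounds, about 410 of them at 50% or above in at least one test.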
C: 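Histidine-tRNA ligase, Trypanosoma cruzi CL Brener (UniProt Q4DA54). Enzyme assay of histidyl-tRNA synthetase; the read-out is not stated. Tested at 30 µM. Direction is inferred from retests: higher values go with stronger inhibition. Of about 69,000 compounds tested this way, about 31 (0.045%) reached 50% or more in at least one test.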
D: 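Cell assay of Leishmania donovani living inside macrophages; the read-out is not stated. Compounds at 30 µM. Direction is inferred from retests: higher values go with stronger inhibition. Size under these conditions: about 69,000 compounds, about 1,000 of them at 50% or above in at least one test.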
E: 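Protease assay of ClpP1P2, read by the AMC dye that it sets free. Target: ClpP1P2, Mycobacterium tuberculosis (UniProt P9WPC5 and UniProt P9WPC3). Concentration: 50 µM. Direction is inferred from only a few compounds that gave an IC50; most scored high, so higher reads as stronger inhibition. Most other retested compounds had strongly negative values. Size under these conditions: about 69,000 compounds, about 10 of them at 50% or above in at least one test.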

Compound,A,B,C,D,E
CCCc1nc(NCc2c(C)nn(CCC)c2C)c2cnn(C)c2n1,-0.08293,26.53,6.154,41.21,6.86
Fc1ccc(CN2CCCC(Cn3cncn3)C2)c2ncccc12 (configuration not stated),-4.137,21.7,5.858,36.59,-4.979
O=C(CCc1cscn1)N1CCC(C(=O)O)(c2ccccc2)CC1,-0.5014,3.448,4.712,-17.4,-6.872
Cc1cc(CN2C[C@@H]3COC[C@@H](C(=O)N4CCCCO4)[C@@H]3C2)no1,-2.351,20,7.843,-,11.65
[H][C@@]12CCC(=O)N(CCc3c[nH]cn3)[C@]1([H])CCN(Cc1cccc(F)c1)C2,-,-,-,15.69,-
CC(C)c1noc(CN2CCC(C3CCCCCN3S(C)(=O)=O)CC2)n1.Cl (configuration not stated),-,-,-,-3.93,-
CCNC(=O)C1CCN(Cn2nc(-c3ccc(F)cc3)oc2=O)CC1,0.5187,8.696,2.299,3.803,-3.293
Cc1noc(C)c1C(=O)N1CC[C@H]2C[C@@H](c3nccs3)O[C@@H]2C1,2.47,21.57,1.639,-,-2.942
CC(C)NC(=O)N1CC[C@H]2N(C)CC[C@@]2(C(=O)Nc2cccnc2)CC1,4.486,9.91,5.525,-,-6.966
Cc1cc(C)n2cc(CN3CCCC3Cn3nc(C)nc3C)nc2n1 (configuration not stated),-1.448,31.08,20.75,8.351,4.298
COCCOc1ccccc1C(=O)N1CCCCC1c1nccs1 (configuration not stated),-1.806,50,3.008,0.6757,0.645
Cc1nc(NC(=O)COCC2CC2)ccc1Br,4.215,16.44,0,12.44,0.4565
CCS(=O)(=O)N1CC[C@@H]2[C@H](COCC3CC3)CN(C)C(=O)[C@@H]2CC1,3.12,-6,1.149,-,-4.293
Cl.N#Cc1ccc(CNCC2(c3ccccc3)CCOCC2)cc1,-,-,-,-2.546,-
Cn1nc2c(cc1=O)CN(Cc1coc(-c3cccs3)n1)CC2,13.03,97.62,1.504,32.03,-1.519
O=C1C[C@H]2CC[C@@H](CN1)N2C(=O)CCc1ccsc1,5.263,1.399,6.468,-,-2.072
O=C(c1cccc(C(F)(F)F)c1)N1CC(=O)N(C2CCC2)CC(O)C1 (configuration not stated),7.054,-2.041,14.61,2.206,2.989
CCOc1ccccc1-n1c(C2CC2)n[nH]c1=O,1.276,-34.94,0.4975,-47.75,-2.474
O=C(O)C(F)(F)F.[H][C@]12CCCC(OCc3cccnc3)[C@@]1([H])CN(C(=O)c1cscn1)C2 (some centres not stated),-,-,-,-6.625,-
Cc1cc(N)cc(C2CN(Cc3cc[nH]n3)CCO2)n1 (configuration not stated),0.4336,16,7.491,25.38,-18.63
Cn1ccc(C(=O)NC2CCC23CCN(C(=O)c2ccncc2)CC3)c1.O=C(O)C(F)(F)F (configuration not stated),-,-,-,-12.22,-
O=C(CCn1ccc2cc(Br)ccc21)/N=c1\[nH]nc(C2CCCO2)s1 (configuration not stated),8.74,-128.3,-4.95,4.273,-8.23
O=C(c1ccc[nH]1)N1CCC2(CC1)C(=O)Nc1ccccc12,5.28,24.53,0,17.62,10.29
O=C(CCNC(=O)c1ccoc1)Nc1cc(F)ccc1F,23.86,9.917,3.361,15.62,-9.751
CNC(=O)[C@H]1C[C@@H]2CN(Cc3cccnc3OC)C[C@@H]2N1C(C)=O,2.614,6.422,3.365,-,5.944
Cc1noc(C)c1S(=O)(=O)N1CCC(Oc2cnccn2)CC1,-3.135,6.957,0,-34.14 & 3.528,-1.154
CCn1cc(CN2CCCN(C(=O)c3sccc3C#N)CC2)cn1,8.142,-41.57,7.519,25.38,1.662
O=C(NS(=O)(=O)c1cccnc1)C1CC(c2ccccc2)=NO1 (configuration not stated),0.7635,21.35,6.736,44.41,2.523
[H][C@@]12CN(CC(=O)N(C)C)C[C@]1([H])OCCN2c1ncc(F)cn1,-,-,-,8.81,-
O=C1O[C@@H]2CN(c3ccncc3)C[C@@H]2N1CCCc1ccc(F)cc1,-0.6003,13.7,7.027,-,-1.597
CC(C)n1cc(C(=O)NCCc2cn3ccsc3n2)cn1,0.4266,13.13,3.226,26.06,5.319
CC(C)CS(=O)(=O)N1CCC2(CC1)CCn1c(-c3cnn(C)c3)cnc12,6.984,11.11,4.516,17.04,11.31
CC(=O)NCc1nc(Cc2cccc(Cl)c2)nn1C1CCN(C)CC1,1.895,9.524,0.5128,43.99,1.643
Cc1noc(C)c1CCC(=O)N1CCCN(Cc2cccs2)CC1,-1.394,32.14,11.83,37.86,-23.51
Cc1cccc(CN2C[C@@H]3CN(C(=O)c4ccsc4)C[C@@H]3C2=O)c1,-4.049,8.491,4.184,-,5.733
c1ccc(CN2CCOC3CNCC[C@H]32)cc1 (some centres not stated),-1.217,33.33,1.604,-,-4.485
CCc1ccc(CN2CCN(c3cccc(OC)c3)C(=O)C2)nc1,1.71,20.22,6.533,11.49,-4.123
Cc1nc(CN(C)C2CCN(CCCc3ccccc3)C2)no1 (configuration not stated),-0.0402,15.38,7.692,35.82,-46.49
Cc1nc(CNC(=O)CC2C(=O)NCCN2Cc2ccccc2C)n[nH]1 (configuration not stated),1.893,3.125,0,-5.869,2.482
COc1ccccc1CC(=O)NS(=O)(=O)c1cncc(Br)c1,-1.866,-5.479,5.344,-36.58,5.31
c1cnc(NCc2cncc3c2CCN(Cc2ccsc2)C3)nc1,-6.688,14.71,9.852,-,-1.023
CN(CC(N)=O)CC1(c2ccc(Br)cc2)CC1,1.071,21.43,-0.8772,28.49,-9.995
[H][C@@]12CN(C(=O)N(C)C)C[C@]1([H])C(=O)NC21CCN(C(=O)NC(C)C)CC1,-,-,-,-10.91,-
CC(=O)N1CCN(C(=O)c2csc(-c3ccc(C)cc3C)n2)CC1,-0.6343,14.68,2.624,0.9634,-22.62
COCCNC(=O)[C@H]1CN(Cc2cccs2)C[C@H]2OCC[C@@H]12,-1.523,1.613,-7.018,-,-8.583
CCc1nnc2n1CCN(C(C(=O)N(CC)CC)c1ccccc1)C2 (configuration not stated),2.76,23.6,11.92,40.97,-3.435
CNc1cc2c(nn1)CCN(C(=O)c1cc(F)cc(F)c1)C2,-1.087,21.33,4.151,-1.861,2.652
O=C(O)C(F)(F)F.O=C(c1ccsc1)N1CCc2c(COCC3CC3)cncc2C1,-,-,-,0.7172,-
COCC1CN(Cc2c(C)noc2C)Cc2ccnn2C1 (configuration not stated),-1.974,2.941,0.9852,-,-2.842
CC(C)c1ccc(OCCNC(=O)c2ccoc2)cc1,4.68,10.42,3.797,10.81,-2.638

For reference, 6 entries once more:

| Compound | A | B | C | D | E |
|---|---|---|---|---|---|
| `CC(C)c1noc(CN2CCC(C3CCCCCN3S(C)(=O)=O)CC2)n1.Cl` (configuration not stated) | - | - | - | -3.93 | - |
| `Cn1ccc(C(=O)NC2CCC23CCN(C(=O)c2ccncc2)CC3)c1.O=C(O)C(F)(F)F` (configuration not stated) | - | - | - | -12.22 | - |
| `O=C(c1ccc[nH]1)N1CCC2(CC1)C(=O)Nc1ccccc12` | 5.28 | 24.53 | 0 | 17.62 | 10.29 |
| `CCNC(=O)C1CCN(Cn2nc(-c3ccc(F)cc3)oc2=O)CC1` | 0.5187 | 8.696 | 2.299 | 3.803 | -3.293 |
| `O=C(CCn1ccc2cc(Br)ccc21)/N=c1\[nH]nc(C2CCCO2)s1` (configuration not stated) | 8.74 | -128.3 | -4.95 | 4.273 | -8.23 |
| `[H][C@@]12CN(CC(=O)N(C)C)C[C@]1([H])OCCN2c1ncc(F)cn1` | - | - | - | 8.81 | - |

From ChEMBL document CHEMBL3988442, “University of Dundee, Small-Polar-MMV Screening Library” (2021).